For at least one entry, the source does not settle the construct or the ends of the probe. At least one verdict was read from the data and is not stated in words by the source.
Biological target: CD63 (LAMP3, on HeLa exosomes) (human) (UniProt P08962)
Assay: exosome capture on aptamer-coated microfluidic channel, fluorescence imaging
Conditions: 5 µM aptamer for coating, whole exosomes, 3' (CH2)6-NH2, coupled to glass via PEI/glutaraldehyde, PBS (10 mM, pH 7.4) washes, 2% BSA block at room temperature, exosomes in culture medium, binding buffer of the aptamer not stated, native protein, single-stranded DNA

Protein sequences, listed by entry. Tags and fused reporters are not part of them. Residues count along the entry.
UniProt P08962, 2-238: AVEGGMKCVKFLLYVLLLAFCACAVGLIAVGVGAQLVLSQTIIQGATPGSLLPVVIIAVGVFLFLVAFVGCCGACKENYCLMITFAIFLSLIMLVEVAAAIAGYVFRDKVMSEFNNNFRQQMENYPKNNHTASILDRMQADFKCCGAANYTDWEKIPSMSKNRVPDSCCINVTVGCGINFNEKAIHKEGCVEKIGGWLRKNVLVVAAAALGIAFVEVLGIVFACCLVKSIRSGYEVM

“CACCCCACCTCGCTCCCGTGACACTAATGCTA [CD63 aptamer (CD63 adaptor strand)]”: binds.

From article PMC10781284
